Measured values: publication doi:10.1101/2020.08.16.252973
No constants are given. Whether binding was seen depends on the method and setting. Binding seen in cells or lysates may run through a third protein. Some entries that bind do so weakly or less than the wild type.

Chains of the proteins cited; added tags and fusions are not shown.
UniProt Q8IUC6: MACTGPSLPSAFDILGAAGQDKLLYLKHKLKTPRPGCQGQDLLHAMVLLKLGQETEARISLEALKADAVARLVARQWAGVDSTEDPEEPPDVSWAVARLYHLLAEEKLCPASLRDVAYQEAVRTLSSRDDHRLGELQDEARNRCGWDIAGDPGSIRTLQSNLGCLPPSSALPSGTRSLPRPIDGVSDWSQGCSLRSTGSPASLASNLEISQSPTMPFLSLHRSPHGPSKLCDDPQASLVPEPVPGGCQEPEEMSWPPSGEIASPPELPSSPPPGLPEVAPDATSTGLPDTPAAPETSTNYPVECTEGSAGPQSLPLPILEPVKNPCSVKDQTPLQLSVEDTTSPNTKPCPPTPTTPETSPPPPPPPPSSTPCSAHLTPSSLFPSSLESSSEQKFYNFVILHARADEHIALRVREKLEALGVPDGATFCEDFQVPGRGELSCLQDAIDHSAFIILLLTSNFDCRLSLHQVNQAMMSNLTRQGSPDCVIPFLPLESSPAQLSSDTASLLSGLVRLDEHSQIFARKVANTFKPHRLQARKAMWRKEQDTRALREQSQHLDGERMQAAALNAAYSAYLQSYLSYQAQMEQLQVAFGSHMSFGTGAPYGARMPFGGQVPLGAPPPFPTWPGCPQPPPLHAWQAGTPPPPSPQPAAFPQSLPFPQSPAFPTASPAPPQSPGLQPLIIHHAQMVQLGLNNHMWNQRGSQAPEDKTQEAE
UniProt Q86WV6: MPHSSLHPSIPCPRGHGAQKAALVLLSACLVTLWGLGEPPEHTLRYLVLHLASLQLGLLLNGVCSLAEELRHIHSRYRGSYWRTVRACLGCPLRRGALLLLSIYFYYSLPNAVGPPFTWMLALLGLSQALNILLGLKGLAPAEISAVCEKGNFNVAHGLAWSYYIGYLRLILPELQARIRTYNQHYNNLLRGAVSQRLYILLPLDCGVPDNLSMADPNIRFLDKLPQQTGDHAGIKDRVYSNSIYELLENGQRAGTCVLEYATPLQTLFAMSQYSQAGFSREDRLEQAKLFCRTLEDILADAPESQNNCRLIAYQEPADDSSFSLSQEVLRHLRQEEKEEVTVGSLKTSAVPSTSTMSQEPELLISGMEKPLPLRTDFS
UniProt P0DTD2: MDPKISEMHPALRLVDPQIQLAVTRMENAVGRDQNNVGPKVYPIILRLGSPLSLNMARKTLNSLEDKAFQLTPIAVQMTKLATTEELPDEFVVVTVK

Legend:
[1] = biological target: TIR-domain-containing adapter-inducing interferon-β (UniProt Q8IUC6); assay: co-IP
stimulator of IFN genes = stimulator of IFN genes (UniProt Q86WV6); assay: co-IP

With “SARS-CoV-2 ORF9b (from UniProt P0DTD2 1-97)” the binding [1] was “binds” and the binding (stimulator of IFN genes) was “binds”.
